Laboratory results taken from PubChem BioAssay AID1508600 (Functional Genomics Laboratory (NCATS/FGL), 2020).
The whole screen tested about 53,000 sequences, of which about 3,700 (7%) were called active.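 How the source made its calls: active means gene knockdowns whose robust z-score for IL-1 alpha signal is at least 2 or at most -2, so actives lie on both sides; inactive means the rest.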 This is one part of the list.

Experiment: Components of the Cytosolic LPS Sensing Pathway: Gene Identification via Genome-wide siRNA Screen;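 further: robust z of the log signal after scaling to non-targeting control siRNA wells of the plate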
Details: RAW264.7 macrophages, IL-1a HTRF, actives lie on both sides, screened at 100 nM (by protocol), cells primed 5 h with Pam3CSK4 first
Outline: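 IL-1a HTRF of supernatants after 24 hour LipidA transfection of Pam3CSK4-primed (5 hours) RAW264.7 cells, 48h post-siRNA transfection (100 nM). Scores: percent of plate negative-control median, then log-based robust z-score.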

z-score, inactive:
GGCCAUGAAUGGAAUGUACTT against Slco1a1 -1.56, GGCAUGAGAUUCUCAAUCCTT against Ppp4r4 -1.82, GCCUAAGAGUUUCAAUAAGTT against Tgtp1 -1.21, GGAGAAAUCAGAAUUUUUGTT against Dbf4 -0.0526, GGGCGUGUUAUCAAUGUCUTT against Dhrs9 -0.314, UCUUUGUGGUAGCCAUCCUTT against Olfr129 1.09, CCUUUAUGAAUGAACAGGGTT against Cnot7 -0.266, GGUGUAUGCAGACAAGUUATT against Ctdspl2 -0.158, CGAAUCCUUAGUUGAAGAATT against Fastkd1 1.18, GGAACAAUUGAUAAGACGATT against Guf1 0.237, GGUACUGCAACUACAUGAUTT against Rnase12 -0.607, GGCUCAAGGAACAUGAGGCTT against Gtsf2 -0.0452, GGACAUUAGAGAAUCAUUATT against Gm4922 -0.183, CCUUGAGUGAAAAAGGUUUTT against Top2b 1.19, GGAAUUUUCUUCAUUUGGATT against Pabpc5 -0.878, GGUUGUGGUAGUCCGCUAUTT against Mrpl2 0.787, GGAUGAUACAUGUUUGAAUTT against Vmn1r51 -0.121, GACUUUUCAGGCAUACCUATT against Ypel2 -1.19, GGAAGACCGUACUAUGUUUTT against Meg3 0.419, GGCCAUUGACUUUGUGGAUTT against Gatd1 0.317, CCAAGAUCUAUGGAGGACGTT against Rps19 -0.284, GCCUUCGUCUCCAAGUAUATT against Plagl1 -0.305, GGCGAAGCACUCGAAUUUCTT against Slc23a2 0.0273, GGACUCAUAUUCGUAUGUATT against Zfr -1.23, CCGAGUAAUUAACUAUAAGTT against Eqtn 0.745, GGGUUCCUAAAUAGAAAAUTT against Nanos1 0.047, GGUCACCCAUUUCUUUUGUTT against Olfr361 0.59, GGAUGGUGUAGCACAUUUCTT against Tulp2 0.422, GGCGAAAAUAAGUUGAAAATT against Bhlhe22 0.796, CGGCAGGAUGAAUGAGAUCTT against Bccip -1.4, GGAGAUAACGUACAUCAACTT against Sfrp2 1.7, CGAUCCAGUAUUCGAAGCATT against Sqstm1 0.263, GCACACCAGCGACAUUCUATT against Aipl1 1.21, GGGAGAAGAAAAGAAGACATT against Cldn23 0.554, GGCUUUUAGCUACCUUGUGTT against AW209491 -0.704, GGAGAUCUAUAAGGAUAGATT against Flot1 -0.0586, GGUGACGCAGAGGAUCUAUTT against Pmf1 0.911, GGAAUUUGACAAACUCAGCTT against Rcn3 0.986, GGAGUUACGCCGAAACAGGTT against Wfdc15a 0.0102, GGGCCACUGUCGAUAUGAATT against Prr3 -0.459, GCCUGUUAGCGGUUGUUGUTT against Syt10 -0.542, GGGAGGGUGUGCAAAAGUUTT against Arl4d 1.26, GGAUUUGGAUUUGUAAGCUTT against Pabpc1 1.99, GCUUGCUAGAGUGAUCUCGTT against Adsl -0.331, GGAAUUAUUCCCAAUCCUATT against Cbln1 0.204, GGGCAUCAGCAUUUGGUCATT against Med1 0.698, CCUGGAUCAGCAAUCCACATT against Lpxn -0.503, GGAUAGGGAUUGGAGAUAUTT against Stn1 0.203, GGAGCUAUUGACACAAGUCTT against E230025N22Rik 0.00962, GCAGAGAGCACAAUAAAGCTT against Chchd6 1.36, GGAGGUGUUGAACAAGUGCTT against Tescl 1.61, CCCUUAAAGGGUAGCAUUUTT against Ncan 0.837, GGAGUUGACGAAGAUAUGATT against Nsmce2 0.28, GCUACAUCUACCUUAGGCCTT against Olfr1329 0.584, GGUUGAAAAUUUCAAACAGTT against Btg4 0.621, GGGCAACACAGGACAUCUATT against Amot -0.35, GGCCACCUCUCGAAAGUUUTT against Xirp1 -0.731, GCACUGUGACGAUACAAGATT against Asb1 -1.17, GCUGUUCCUAUUUCAUGACTT against Myo3b -0.625, GGUCAAUGGCCACAAGUUCTT against Prkce 0.421, GCACAAGUUCGUGCCAGGUTT against Prf1 0.65, GGUUAUAUGGACCCUAAAATT against Aplnr -0.339, GGCAUUCUGUGAGACACAATT against Exosc10 0.389, GGAUUCUUGCACUAUUUAGTT against Cep135 -0.315, GCAAGUUUGAGGAUCUAAATT against Gnai2 0.593, CCGAGAAAAAGCAGAAAUCTT against Psma2 -0.98, CCAUAUGUGAUUUGUCUUGTT against Cacnb2 -0.706, GGAAAGCCGUAUAGUUGUATT against Zfp791 -0.154, GCACUAACCUAUACAUCUCTT against Sorl1 1.33, CGCUUACAUGAACUUCAUATT against Taar9 -1.07, CCACAUGAGUGGACCUACGTT against Arid3c -1.33, UGACACCUUCUCAUUGGCCTT against Rexo1 -1.51, GCAUUUUCUAGAUGGAAGCTT against Hao1 0.748, GGGUUACUUCAGAUUUUGCTT against Atoh8 -0.939, GGACCUUUCCCAAUUCCUUTT against Cyp2e1 0.744, GGUUUAGACAGACUUUAGATT against Zbtb9 -0.377, GGACGAAGCUCUGAAACACTT against Fbxl2 1.32, GGCUGUCCUUUUCCUCUUATT against Yipf6 1.49, GGCAUGUAUCUCAACAUGUTT against Fcsk 0.226, CGUACUAUACUAACACAGATT against Arl5a 0.391, GGGAAAUUUAAAGCCCUCUTT against Olfr1225 0.488, GUCUCAAAUUUAUCCUGAUTT against Lamtor2 -0.117, GCGACUCCUAGACAGAAAGTT against Golph3l 0.116, GGAACAAGUAAAAUUCGUCTT against Tssk2 1.71, CCCUGGCUGUCCUCUAUAATT against Ripply1 -0.767, GCUAGUUUGCCUGAAUAUUTT against Kif27 -0.871, CCGAUUGAAAUAUGAAUCCTT against Cuedc1 1.22, GGUGGCUGUUCUUUUGACGTT against Ptprt -1.21, GGACCUUUGUAUUUCAUUUTT against Abhd14a 0.503, GGUCAAGAACAAUUCCAAGTT against Itih4 1.66, GGAAUUUCUUCUGAAUGUUTT against Bach2 -1.32, GGAAUUCAGUAGGUGGUCUTT against Rab39b -0.963, CCCUCUCCUAUUCUACAUGTT against Arf3 -0.466, GGCAUGGAAACUGUUUUGCTT against Olfr677 -0.904, CCAAGCCUCCAAUGGUCAGTT against Stat6 -0.623, GGAGUGGAAAAAGUGACCATT against Cox4i2 -0.868, CCCACAUCCCUAAGUUGUGTT against Kash5 1.55, CCUUCCACCAACAAAAGCCTT against Hsh2d -0.398, GGAUGCUUACCAAAGGAUATT against Mrps18a -0.48, CCGAGACAUAAAUUUUCCATT against Cphx1 -0.547, GGCUCGGAAAGAAAAGAACTT against Ctr9 -1.16

z-score, active:
CCCUAUCCUGUUCAUCUCUTT against Gpr50 2.83, CGUGCCACUUUUACCGUCCTT against Zdhhc8 -2.43, CCCACAGAACCACACAUUCTT against H2-DMa 3.11, GGUCGACAGAUCAAGCCUUTT against Psmb3 -2.18, GGUAAACAUGUCUAUGACUTT against Fpr-rs7 -2.09, GAACUACCUGGACUUCCACTT against Cox6b1 2.5
